Test results taken from patent US11298337B2, “Parthenolide and its derivative for use in the treatment of axonal damage” (RUHR-UNIVERSITÄT BOCHUM, priority 2015, dated 2022).
At least one compound was matched to its structure with a doubt left.

Tested on: adult retinal ganglion cells
Test: Neurite outgrowth of adult retinal ganglion cells
Details: 4 days in culture

Q: With `[Li]` [Lithium, lithium] as the compound, how does the neurite growth (lithium alone) read?
A: no significant effect

Q: What about the neurite growth (lithium together with 1 nM parthenolide) of the same compound?
A: further enhanced the beneficial effect of parthenolide
